In ChEMBL document CHEMBL4190215, “Ochracenes A-I, Humulane-Derived Sesquiterpenoids from the Antarctic Fungus Aspergillus ochraceopetaliformis” (J Nat Prod, 2017):

Tested on: A549
Experiment: Cytotoxicity against human A549 cells assessed as reduction in cell viability after 72 hrs by CCK-8 assay
Format: functional, cell-based
Conditions: A549, 72 h

For `CC(=O)O[C@H]1C(=O)[C@@]2(C)[C@H]([C@H](OC(=O)c3ccccc3)[C@]3(O)C[C@H](OC(=O)[C@H](O)[C@@H](NC(=O)c4ccccc4)c4ccccc4)C(C)=C1C3(C)C)[C@]1(OC(C)=O)CO[C@@H]1C[C@@H]2O` [PACLITAXEL], the IC50 was 2.1 nM.
